Measurements published in publication PMC11730744.
No constants are given. Whether binding was seen depends on the method and setting. Binding seen in cells or lysates may run through a third protein. Some results given as binding are weak or reduced against the parent protein; the word gives no strength.

By UniProt entry, the sequences of proteins in these tests, tags left out. Residues count along the entry.
UniProt Q96D31: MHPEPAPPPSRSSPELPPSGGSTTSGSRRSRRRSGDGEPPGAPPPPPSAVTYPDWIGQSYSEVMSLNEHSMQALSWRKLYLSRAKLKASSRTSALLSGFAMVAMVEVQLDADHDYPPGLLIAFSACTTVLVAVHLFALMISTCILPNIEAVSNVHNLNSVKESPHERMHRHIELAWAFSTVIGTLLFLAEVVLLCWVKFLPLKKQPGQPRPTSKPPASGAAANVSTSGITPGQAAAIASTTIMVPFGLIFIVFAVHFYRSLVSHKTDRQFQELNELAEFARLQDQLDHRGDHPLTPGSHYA
UniProt Q9P246, residues 15-746: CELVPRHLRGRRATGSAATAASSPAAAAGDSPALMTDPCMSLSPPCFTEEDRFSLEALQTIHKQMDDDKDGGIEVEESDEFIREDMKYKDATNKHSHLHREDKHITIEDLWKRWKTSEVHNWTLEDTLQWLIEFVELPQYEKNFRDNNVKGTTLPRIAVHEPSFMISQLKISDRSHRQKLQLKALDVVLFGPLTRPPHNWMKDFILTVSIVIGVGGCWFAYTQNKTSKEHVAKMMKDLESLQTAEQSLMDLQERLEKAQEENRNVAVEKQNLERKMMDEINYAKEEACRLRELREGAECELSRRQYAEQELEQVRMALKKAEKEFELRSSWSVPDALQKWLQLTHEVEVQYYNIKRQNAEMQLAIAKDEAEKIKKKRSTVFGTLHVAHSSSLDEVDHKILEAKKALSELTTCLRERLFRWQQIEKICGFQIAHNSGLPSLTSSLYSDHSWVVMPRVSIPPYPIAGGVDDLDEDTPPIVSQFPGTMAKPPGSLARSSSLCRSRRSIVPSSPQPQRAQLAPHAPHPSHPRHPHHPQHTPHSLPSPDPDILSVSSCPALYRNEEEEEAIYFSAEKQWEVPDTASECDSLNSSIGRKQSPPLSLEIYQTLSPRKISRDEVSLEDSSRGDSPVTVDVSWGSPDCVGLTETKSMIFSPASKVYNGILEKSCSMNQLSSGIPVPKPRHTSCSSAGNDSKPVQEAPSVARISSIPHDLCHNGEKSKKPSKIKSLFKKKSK

Molecular target: Orai1α-eGFP (UniProt Q96D31)
Test: co-IP; NP-40 lysates (pH 8) of STIM1/2 DKO HEK-293 cells cotransfected with Orai1 variant-eGFP and STIM1-YFP, STIM2-YFP or both; IP with anti-Orai1 antibody and protein A-agarose overnight at 4°C; blots with anti-STIM1 and anti-STIM2; cells resting or treated with 2 µM TG for 1 min in 1.8 mM extracellular Ca2+

- binding: binds
Substance: STIM2-YFP (from UniProt Q9P246 15-746)
